Assay results: patent US20110110852A1
These are yes or no findings as the source states them, for the method shown. In cells and extracts the contact can be indirect. Some binding calls cover weakened binding; strength is not graded here.

Target: DR5 on cells, O14763
Experiment: DISC analysis on BJAB cells, co-purification with antibody-DR5 complexes, Western blot
Conditions: remark: other sources report otherwise

B1: caspase 8, Q14790 1-479 (enzyme, UniProt Q14790 1-479, looked up)
chain: MDFSRNLYDIGEQLDSEDLASLKFLSLDYIPQRKQEPIKDALMLFQRLQEKRMLEESNLSFLKELLFRINRLDLLITYLNTRKEEMERELQTPGRAQISAYRVMLYQISEEVSRSELRSFKFLLQEEISKCKLDDDMNLLDIFIEMEKRVILGEGKLDILKRVCAQINKSLLKIINDYEEFSKERSSSLEGSPDEFSNGEELCGVMTISDSPREQDSESQTLDKVYQMKSKPRGYCLIINNHNFAKAREKVPKLHSIRDRNGTHLDAGALTTTFEELHFEIKPHDDCTVEQIYEILKIYQLMDHSNMDCFICCILSHGDKGIIYGTDGQEAPIYELTSQFTGLKCPSLAGKPKVFFIQACQGDNYQKGIPVETDSEEQPYLEMDLSSPQTRYIPDEADFLLGMATVNNCVSYRNPAEGTWYIQSLCQSLRERCPRGDDILTILTEVNYEVSNKDDKKNMGKQMPQPTFTLRKKLVFPSD
**Q.** With B1 as the binder, how does the binding read?
**A.** binds
